Binding data for one substance are collected here from article PMC5095532.

No constants are given. Whether binding was seen depends on the method and setting. Binding seen in cells or lysates may run through a third protein. Some binding calls cover weakened binding; strength is not graded here.

The target in the assay is poly ADP-ribose polymerase 14 (PARP14) (UniProt Q460N5). Nature of the assay: co-IP; 100 ug of cell lysate protein (IP lysis buffer) incubated with PARP14 antibody (5 ug) and Dynabeads streptavidin, rotation overnight at 4 °C; three washes with PBS/Tween 20 (0.02%); SDS-PAGE and western blot. On the technique in general: Immunoblotting shows a protein as a band on a membrane.

Regarding “PARP9 (from UniProt Q8IXQ6 1-854) (other; other documents disagree on this pair)”, the binding entry is “binds”.
